Results published in patent US20230212306A1 (Daiichi Sankyo, published 2023).
Results are given in words; binding and its absence hold for the method and conditions named. Some binding calls cover weakened binding; strength is not graded here. Where a sequence is shown, tags or fusion partners need not be part of it.

How the values were obtained:
[1] = molecular target: T1, monkey TLR7-Flag, expressed in HEK293 cells (monkey); assay: flow cytometry, FIG. 27, antigen monkey TLR7
T1 sequence: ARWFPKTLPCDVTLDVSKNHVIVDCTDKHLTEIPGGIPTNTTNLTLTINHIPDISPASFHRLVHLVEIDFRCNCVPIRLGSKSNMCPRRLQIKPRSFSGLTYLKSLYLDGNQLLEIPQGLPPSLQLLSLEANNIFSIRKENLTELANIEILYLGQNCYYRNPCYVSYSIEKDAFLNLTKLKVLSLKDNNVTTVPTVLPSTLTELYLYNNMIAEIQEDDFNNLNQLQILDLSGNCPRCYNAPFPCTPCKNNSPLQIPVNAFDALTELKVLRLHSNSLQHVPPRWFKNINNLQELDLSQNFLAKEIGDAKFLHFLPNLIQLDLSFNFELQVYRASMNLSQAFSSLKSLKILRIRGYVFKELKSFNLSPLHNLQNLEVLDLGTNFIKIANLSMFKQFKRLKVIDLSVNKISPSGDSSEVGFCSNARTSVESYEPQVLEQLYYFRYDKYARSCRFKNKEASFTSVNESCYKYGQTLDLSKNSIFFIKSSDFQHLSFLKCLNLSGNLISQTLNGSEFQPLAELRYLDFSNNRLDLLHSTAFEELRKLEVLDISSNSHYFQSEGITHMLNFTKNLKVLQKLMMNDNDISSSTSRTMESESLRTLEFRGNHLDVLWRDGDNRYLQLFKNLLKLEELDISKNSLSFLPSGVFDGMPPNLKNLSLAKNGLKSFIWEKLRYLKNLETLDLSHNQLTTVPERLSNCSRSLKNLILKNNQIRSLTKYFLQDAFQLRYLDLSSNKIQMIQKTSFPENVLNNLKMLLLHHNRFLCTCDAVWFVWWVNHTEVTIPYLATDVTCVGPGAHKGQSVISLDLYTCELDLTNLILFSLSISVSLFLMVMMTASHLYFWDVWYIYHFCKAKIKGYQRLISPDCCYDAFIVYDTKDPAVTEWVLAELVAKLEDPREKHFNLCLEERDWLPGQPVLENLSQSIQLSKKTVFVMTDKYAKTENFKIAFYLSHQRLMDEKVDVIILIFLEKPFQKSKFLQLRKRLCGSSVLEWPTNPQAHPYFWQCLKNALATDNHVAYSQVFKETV

[2] = molecular target: T1, monkey TLR7-Flag, expressed in HEK293 cells (monkey); assay: flow cytometry on fixed and permeabilised HEK293 cells expressing monkey TLR7-Flag

- binding [1]: binds
- binding [2]: binds
B1: huAT01_H3L2_IgG1LALA antibody (antibody, V domains shown)
VH: QVQLVQSGAEVKKPGASVKVSCKASGYTFTNNWLHWVRQAPGQGLEWMGDIYPSNGRTNYAQKFQGRVTLTVDKSTSTAYMELSSLRSEDTAVYFCARERGYFDYWGQGTLVTVSS
VL: DIQMTQSPSSLSASVGDRVTITCKASQDINKYIAWYQQKPGKAPKLLIHYTSTLQPGIPSRFSGSGSGRDYTLTISSLQPEDFATYYCLQYDYLLTFGQGTKVEIKR
notes: Humanized AT01; heavy huAT01_H3_IgG1LALA, light huAT01_L2
